In PMC4927293:
These are yes or no findings as the source states them, for the method shown. Some entries that bind do so weakly or less than the wild type. Each block holds one molecule with its values, some of them ahead of it.

By UniProt entry, the sequences of proteins in these tests, tags left out. Where a name states a change or a piece, a line headed by the entry shows the natural chain unless it says otherwise.
UniProt P31539: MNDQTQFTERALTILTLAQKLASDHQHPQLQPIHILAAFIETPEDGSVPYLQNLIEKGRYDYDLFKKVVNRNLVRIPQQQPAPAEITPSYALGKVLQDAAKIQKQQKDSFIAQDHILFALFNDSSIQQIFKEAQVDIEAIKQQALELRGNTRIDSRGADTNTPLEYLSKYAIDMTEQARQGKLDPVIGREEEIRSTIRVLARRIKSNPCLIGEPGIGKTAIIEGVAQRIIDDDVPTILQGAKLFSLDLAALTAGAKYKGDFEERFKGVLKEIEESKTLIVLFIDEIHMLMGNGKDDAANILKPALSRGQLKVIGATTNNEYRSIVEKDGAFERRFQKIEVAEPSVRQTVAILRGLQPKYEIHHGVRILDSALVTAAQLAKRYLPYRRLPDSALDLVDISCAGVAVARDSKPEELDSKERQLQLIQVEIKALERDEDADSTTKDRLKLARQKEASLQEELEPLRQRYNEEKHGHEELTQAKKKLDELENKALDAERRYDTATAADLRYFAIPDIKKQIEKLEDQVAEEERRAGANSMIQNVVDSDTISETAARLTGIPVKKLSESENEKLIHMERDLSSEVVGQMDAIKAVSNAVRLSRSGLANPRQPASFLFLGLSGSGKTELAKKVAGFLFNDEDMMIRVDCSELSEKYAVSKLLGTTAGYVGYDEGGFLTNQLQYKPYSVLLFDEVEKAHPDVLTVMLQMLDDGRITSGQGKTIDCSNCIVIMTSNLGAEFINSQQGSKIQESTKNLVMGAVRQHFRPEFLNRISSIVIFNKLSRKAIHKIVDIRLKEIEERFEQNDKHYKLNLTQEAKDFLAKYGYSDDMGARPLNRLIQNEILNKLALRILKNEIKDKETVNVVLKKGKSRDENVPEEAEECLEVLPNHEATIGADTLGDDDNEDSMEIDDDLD
UniProt P10591: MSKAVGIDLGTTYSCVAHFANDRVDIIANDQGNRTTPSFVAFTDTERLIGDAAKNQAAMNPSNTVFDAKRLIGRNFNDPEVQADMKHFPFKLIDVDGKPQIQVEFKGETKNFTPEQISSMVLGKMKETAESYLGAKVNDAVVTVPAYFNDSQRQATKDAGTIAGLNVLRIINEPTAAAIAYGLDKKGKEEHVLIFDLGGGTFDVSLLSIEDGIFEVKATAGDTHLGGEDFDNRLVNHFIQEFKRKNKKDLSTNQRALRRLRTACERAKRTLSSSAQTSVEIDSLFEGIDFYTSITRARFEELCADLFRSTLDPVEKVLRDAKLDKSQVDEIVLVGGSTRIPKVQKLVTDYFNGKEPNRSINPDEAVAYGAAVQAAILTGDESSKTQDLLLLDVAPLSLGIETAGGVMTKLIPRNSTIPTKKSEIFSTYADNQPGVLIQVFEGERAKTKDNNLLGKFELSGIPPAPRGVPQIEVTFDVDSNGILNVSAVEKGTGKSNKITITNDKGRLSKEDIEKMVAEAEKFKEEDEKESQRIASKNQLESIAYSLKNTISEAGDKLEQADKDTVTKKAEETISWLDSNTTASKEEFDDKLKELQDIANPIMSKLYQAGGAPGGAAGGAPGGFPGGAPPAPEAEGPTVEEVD

Assays:
[1] = biological target: T1, fluorescein-labelled reduced carboxymethylated lactalbumine (fRCMLa) (UniProt P00711); assay: fluorescence polarisation; fluorescence anisotropy; Hsp104 E285Q (12 uM) injected to fRCMLa (1 uM) at 2.6 mM ATP without ADP, 30 °C, renaturation buffer (40 mM HEPES pH 7.5, 60 mM potassium glutamate, 15 mM magnesium acetate, 5 mM DTT); after 200 s non-labeled RCMLa added to 40 uM; both purified
T1 sequence (chain, reduced carboxymethylated; labeled with fluorescein (site not stated)): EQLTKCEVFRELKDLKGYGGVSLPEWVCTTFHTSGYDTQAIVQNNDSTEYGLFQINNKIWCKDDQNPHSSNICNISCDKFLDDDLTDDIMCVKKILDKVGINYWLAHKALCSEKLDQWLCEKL

[2] = biological target: T1, fluorescein-labelled reduced carboxymethylated lactalbumine (fRCMLa); assay: fluorescence polarisation; fluorescence anisotropy; Ssa1 (2 uM) and Ydj1 (0.5 uM) injected together to fRCMLa (5 uM by the legend, 1 uM by the methods) at 2.6 mM ATP, 30 °C, renaturation buffer; both purified
[3] = biological target: Hsp104 E285Q (S. cerevisiae) (UniProt P31539); assay: fluorescence polarisation; fluorescence anisotropy; Hsp104 E285Q (12 uM) injected to fRCMLa (1 uM) at 2.6 mM ATP without ADP, 30 °C, renaturation buffer (40 mM HEPES pH 7.5, 60 mM potassium glutamate, 15 mM magnesium acetate, 5 mM DTT); after 200 s non-labeled RCMLa added to 40 uM; both purified

binding [1]: binds
Molecule: Hsp104 E285Q (from UniProt P31539 1-908) (enzyme)

binding [2]: binds
Molecule: Hsp70 (Ssa1) (from UniProt P10591 1-642)

binding [3]: binds
B1: reduced carboxymethylated lactalbumine (RCMLa), non-labelled (protein, UniProt P00711 20-142)
chain: T1 sequence (chain, reduced carboxymethylated; labeled with fluorescein (site not stated))
modifications: reduced carboxymethylated
